The AC50 is the concentration at which the activity in the assay is half-maximal. High values mean activity only at high concentration, low ones activity at low concentration.

For 18 compounds, cell number change and AC50 results are on record in PubChem BioAssay AID2685 (National Center for Advancing Translational Sciences (NCATS), 2010).

This test is described as follows: qHTS Assay for Lipid Storage Modulators in Drosophila S3 Cells.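 For cell number change: cells counted by Cell Tracker Red CMTPX staining in the red channel.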 As to conditions: BODIPY lipid droplet fluorescence, 18-24 h; for cell number change: measured here: cell count max response, cells fed with added oleic acid. A digest of the protocol: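 Drosophila S3 cells loaded with oleic acid (400 uM, as added) and compounds at several concentrations; lipid droplets imaged by 488-nm laser-scanning cytometry, 500–530 nm intensity and object ratio to cell channel. Percent activity normalized to 20 uM Triacsin C.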
Background: qHTS replaces the single test concentration by a dilution series.

The mark [1] stands for this setting: measured here: lipid fluorescence (Fed channel) AC50, cells fed with added oleic acid.
[2] abbreviates: measured here: cell number channel AC50, cells fed with added oleic acid.

Some of the results follow. Shown are side measurements of this screen, not its main read-out; they come without a call. Most of these compounds were active or inconclusive in the main read-out, so they are no random draw. Potencies come from curve fits of mixed quality, noted in brackets.

For `c1ccc(SCCCCN2CCOCC2)cc1`, the cell number change was -0.787%. The half-maximal activity concentration (AC50) under setting [1] was 29100 nM [rising, partial curve, poor fit].

`CCOc1ccccc1NC(=O)CN1CCC(NC(=O)c2ccccc2C)CC1`: the cell number change came out at 8.46%. Besides, the half-maximal activity concentration (AC50) under setting [1] was 103 nM [rising, partial curve, poor fit].

With `CCc1n[nH]c(=O)c2cc3cc(OC)ccc3n12`, the cell number change was 12.5%. For the same compound, under setting [1], the AC50 was 29100 nM [falling, single point].

For the compound `Cn1c(=O)c2[nH]c(SCc3ccccn3)nc2n(C)c1=S`, the cell number change was -39.2%. For the same compound, under setting [2], the AC50 was 18400 nM [falling, single point]. Under setting [1], the AC50 is 29100 nM [falling, single point].

On to `S=C(NCc1ccco1)N1CCN(Cc2ccc(Cl)cc2Cl)CC1`, for which the cell number change is 1.14%. Also, the half-maximal activity concentration (AC50) under setting [1] was 16400 nM [rising, single point].

Regarding `O=C(CCN1C(=O)c2ccccc2S1(=O)=O)Nc1nc2c(s1)CCCC2`, the cell number change is -10.6%. The half-maximal activity concentration (AC50) under setting [1] was 517 nM [rising, single point].

Consider `Cc1ccc(-n2c(Cc3ccccc3)n[nH]c2=S)cc1`, for which the cell number change was -21.3%. For the same compound, the AC50 under setting [1] is 146 nM [rising, partial curve, poor fit].

Take `Cc1ccc(NS(=O)(=O)c2cc(-c3cc(C)no3)ccc2C(C)C)nc1`: the cell number change was -13.7%. Further, under setting [1], the half-maximal activity concentration (AC50) was 29100 nM [rising, single point].

With `COc1cccc(NC(=O)c2nc(SC)ncc2Cl)c1`, the cell number change is 5.46%.

With `O=C(NCN1CCCCC1)c1cccnc1`, the cell number change is -22.2%. In addition, under setting [1], the half-maximal activity concentration (AC50) was 1460 nM [falling, full curve].

`Cc1ccc(C)n1-c1ccsc1C(=O)CC#N`: the cell number change was found to be 26.4%. Also, under setting [1], the half-maximal activity concentration (AC50) was 103 nM [rising, full curve, poor fit].

For the compound `CCCn1c(N)c(C(=O)CSc2nc3ccccc3c(=O)n2Cc2ccccc2)c(=O)[nH]c1=O`, the cell number change came out at 8.79%. Moreover, the concentration at half-maximal activity (AC50) under setting [1] is 103 nM [rising, full curve, poor fit].

Take `COc1ccc(CCn2nc(C)c([N+](=O)[O-])c2C)cc1`: the cell number change was 20.6%. The AC50 under setting [1] is 35500 nM [rising, single point].

With `CS(=O)(=O)N1CCN(C(=O)Nc2ccccc2)CC1`, the cell number change was -11.4%. The half-maximal activity concentration (AC50) under setting [1] was 1300 nM [falling, full curve].

Take `CC(C)(C)c1ccc(Oc2ccc(NC(=O)c3ccccc3C(=O)O)cn2)cc1`: the cell number change was found to be 6.21%. Also, the half-maximal activity concentration (AC50) under setting [1] was 1840 nM [rising, single point].

As for `O=C1NC[C@H](c2ccccc2)N(CC2CCCCC2)C1=O`, the cell number change came out at 20.2%.

Turning to `O=C(N/N=C/c1ccc([N+](=O)[O-])cc1)c1cc2ccccc2o1`, the cell number change is -0.961%. Under setting [2], the AC50 was 4.61 nM [rising, full curve, poor fit]. Also, the concentration at half-maximal activity (AC50) under setting [1] is 461 nM [rising, full curve, poor fit].

For `CN(C)CCOc1ccc(Cl)cc1C(C)(C)C`, the cell number change was -40%. Besides, the half-maximal activity concentration (AC50) under setting [2] was 29100 nM [falling, single point]. Under setting [1], the AC50 was 29100 nM [falling, single point].
